Source: patent US20110294740A1
No constants are given. Whether binding was seen depends on the method and setting. Some entries that bind do so weakly or less than the wild type. Sequences can lack the tags named with a protein.

The chains behind the UniProt entries cited, without tags or fusion partners. Residues count along the entry.
UniProt P05067, residues 672-713: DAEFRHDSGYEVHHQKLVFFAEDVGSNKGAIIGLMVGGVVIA

Target: wild-type Aβ42 peptide (UniProt P05067)
Test: SPR

- binding: binds
B1: MBP1 (first 64 residues of MBP) (peptide)
chain: MASQKRPSQRHGSKYLATASTMDHARHGFLRPHRDTGILDSIGRFFGGDRGAPKRGSGKDSHHP
